Assays:
[1] = tested on: cancer tissues in comparison to non-cancerous tissues and organs; test: Presentation profile / over-presentation by label-free LC-MS (XPRESIDENT), tumor versus normal tissues, other proliferative diseases; parameters: species or system human; conditions: other proliferative diseases / organs (other than AML) that over- or exclusively present the peptide; Table 5
primary AML samples = test: HLA class I ligandome analysis (W6/32 immunoaffinity purification, LC-MS/MS) of primary AML samples; parameters: species or system human; conditions: AML patients (n=15)
[2] = HLA class I ligandome, count for the HLA ligand (LiTAP) or, on protein lines, for the source protein (LiTAA)

Substance	Proliferative disease and location thereof [1]	Number of positive AMLs (primary AML samples; [2])	Number of positive AMLs (primary AML samples; HLA ligand (LiTAP))
121 (NATDLLKVL; listed as Homo sapiens) [compound 121]	liver, hepatocellular carcinoma, kidney, renal cell carcinoma	2	–
265 (HEYTTKEVF; listed as Homo sapiens) [compound 265]	liver, hepatocellular carcinoma, cancer, colon, adenocarcinoma	–	1
68 (IGVEHVVVY; listed as Homo sapiens) [compound 68]	brain, cancer, kidney, oncocytoma	4	–
115 (ETEQTIQKL; listed as Homo sapiens) [compound 115]	stomach, metastatic, bone, non-ossifying fibroma	1	–
291 (YVFPGVTRL; listed as Homo sapiens) [compound 291]	stomach, metastatic, prostate, benign nodular; hyperplasia	–	1
262 (GLDPSQRPK; listed as Homo sapiens) [compound 262]	lung, non-small cell lung carcinoma, uterine cervix, squamous cell carcinoma	–	2
306 (RTLNPQMLQK; listed as Homo sapiens) [compound 306]	colon or rectum, testis, seminoma	–	1
80 (LPVRTLSI; listed as Homo sapiens) [compound 80]	colon or rectum, metastatic renal cell carcinoma	1	–
101 (DEIKTLQRY; listed as Homo sapiens) [compound 101]	stomach, adenocarcinoma, liver, carcinoid tumor, metastatic	1	–
60 (KEYIPPLIW; listed as Homo sapiens) [compound 60]	stomach, adenocarcinoma, pancreas, adenocarcinoma	1	–
218 (DTMPQTYKR; listed as Homo sapiens) [compound 218]	liposarcoma	1	–
270 (EVGPREAGLR; listed as Homo sapiens) [compound 270]	kidney, clear cell renal cell carcinoma, kidney, transitional cell carcinoma	–	2
24 (NYLDIKGLL; listed as Homo sapiens) [compound 24]	brain, glioblastoma, thyroid gland, nodular; hyperplasia	1	–
311 (KELSVLSLI; listed as Homo sapiens) [compound 311]	stomach, metastatic, lung, neuroendocrine carcinoma	–	1
213 (GPQEGNGPSLF; listed as Homo sapiens) [compound 213]	colon or rectum, synovial sarcoma	1	–
226 (LPFSLAHL; listed as Homo sapiens) [compound 226]	atypical lipoma	1	–
266 (KLQEQLAQL; listed as Homo sapiens) [compound 266]	liver, hepatocellular carcinoma, cancer, colon, adenocarcinoma	–	1
281 (LELIMSKY; listed as Homo sapiens) [compound 281]	colon or rectum, ovary, thecoma-fibroma	–	1
71 (EEFQFIKKA; listed as Homo sapiens) [compound 71]	kidney, clear cell renal cell carcinoma, synovial; sarcoma	2	–
146 (DVSGKTALNQ; listed as Homo sapiens) [compound 146]	kidney, clear cell renal cell carcinoma, stomach, gastrointestinal stromal tumor (GIST)	1	–
303 (SPASKTTL; listed as Homo sapiens) [compound 303]	stomach, adenocarcinoma, rectum, adenocarcinoma	–	1

From patent US10525115B2 (Immatics Biotechnologies GmbH, priority 2014, dated 2020)
